Measured values from PubChem BioAssay AID330 (DTP/NCI, 2004).
The list shows only some results of the screen, not a fair sample: it is rich in T/C values a quarter to a half above the control, in often repeated tests (any T/C) and in doses without a T/C. Further doses and runs are listed elsewhere. T/C gives the treated animals as a percentage of the vehicle group. Some entries give survivors of the animals treated and no T/C: the source holds a T/C of zero for them, seemingly a mark for toxic or unscored doses. Some doses without a T/C left all or most animals alive at the check, yet need not have been tolerated: the source hardly ever lists a survival T/C far under the control, and the zero likely stands for such cases as well. Counts of survivors are from the toxicity check (mostly the fifth day) where no day follows; animals may have died later. Schedules are NCI's codes, read here as Q, the interval in days (D) or hours (H), X, the number of doses. Some entries were tested several times; the results are listed from low to high. Where survival is the endpoint, the PubChem record calls one and a half times the control and up active, and a quarter to a half above the control has no call in these data; cut-offs in other NCI protocols can differ. Some T/C values carry the count of animals alive at the toxicity check (mostly the fifth day); without a count, all were alive then.

System: P388 leukemia ip, CD2F1 mice, survival T/C
Assay: NCI In Vivo Anticancer Drug Screen. Data for tumor model P388 Leukemia (intraperitoneal) in CD2F1 (CDF1) mice
Conditions: T/C endpoint: median survival time, higher T/C = longer survival
[1] = dose: 100.0 mg/kg/injection, schedule: Q01DX009 (ip), vehicle: Klucel (hydroxypropylcellulose) (HPC)
[2] = dose: 200.0 mg/kg/injection, schedule: Q01DX009 (ip), vehicle: Klucel (hydroxypropylcellulose) (HPC)
[3] = dose: 240.0 mg/kg/injection, schedule: Q01DX005 (ip), vehicle: saline with Tween-80
[4] = dose: 400.0 mg/kg/injection, schedule: Q01DX009 (ip), vehicle: saline with Tween-80
[5] = dose: 50.0 mg/kg/injection, schedule: Q01DX009 (ip), vehicle: saline with Tween-80
[6] = dose: 100.0 mg/kg/injection, schedule: Q01DX009 (ip), vehicle: saline with Tween-80
[7] = dose: 200.0 mg/kg/injection, schedule: Q01DX009 (ip), vehicle: saline with Tween-80
[8] = dose: 100.0 mg/kg/injection, schedule: Q01DX005 (ip), vehicle: saline with Tween-80
[9] = dose: 10.0 mg/kg/injection, schedule: Q01DX009 (ip), vehicle: saline with Tween-80
[10] = dose: 20.0 mg/kg/injection, schedule: Q01DX009 (ip), vehicle: saline with Tween-80

O=[N+]([O-])/C=C/c1ccccc1Cl
T/C (dose: 5.0 mg/kg/injection, schedule: Q01DX009 (ip), vehicle: other): 126 % of control
T/C (dose: 15.0 mg/kg/injection, schedule: Q04DX003 (ip), vehicle: other): 136 % of control
survivor count (dose: 20.0 mg/kg/injection, schedule: Q01DX009 (ip), vehicle: other): 6 of 6
survivor count (dose: 40.0 mg/kg/injection, schedule: Q01DX009 (ip), vehicle: other): 0 of 6
survivor count (dose: 60.0 mg/kg/injection, schedule: Q04DX003 (ip), vehicle: other): 4 of 6
survivor count (dose: 120.0 mg/kg/injection, schedule: Q04DX003 (ip), vehicle: other): 0 of 6

CN(C)c1ncnc2c1ccn2C1OC(CO)C(O)C1O (configuration not stated)
survivor count (dose: 50.0 mg/kg/injection, schedule: Q01DX005 (ip), vehicle: Klucel (hydroxypropylcellulose) (HPC)): 4 of 6
survivor count (dose: 100.0 mg/kg/injection, schedule: Q01DX005 (ip), vehicle: Klucel (hydroxypropylcellulose) (HPC)): 0 of 2
survivor count (dose: 200.0 mg/kg/injection, schedule: Q01DX005 (ip), vehicle: Klucel (hydroxypropylcellulose) (HPC)): 0 of 6

CSC(=Cc1ccc2cc(Br)ccc2[n+]1C)SC
T/C (dose: 12.5 mg/kg/injection, schedule: Q01DX009 (ip), vehicle: Klucel (hydroxypropylcellulose) (HPC)): 125 and 127 % of control
survivor count (dose: 25.0 mg/kg/injection, schedule: Q01DX009 (ip), vehicle: Klucel (hydroxypropylcellulose) (HPC)): 0 of 6
survivor count (dose: 50.0 mg/kg/injection, schedule: Q01DX009 (ip), vehicle: Klucel (hydroxypropylcellulose) (HPC)): 1 of 6
survivor count [1]: 0 of 6
survivor count [2]: 0 of 6

O=C(S)CC(O)(CCl)c1ccc(-c2ccccc2)cc1 (configuration not stated)
survivor count (dose: 400.0 mg/kg/injection, schedule: Q04DX002 (ip), vehicle: Klucel (hydroxypropylcellulose) (HPC)): 1 of 6

C=CCCN=C(SC)SC
survivor count [3]: 1 of 6

Nc1cc(Cl)c(Cl)c(Cl)c1N
survivor count (dose: 100.0 mg/kg/injection, schedule: Q01DX009 (ip), vehicle: saline): 6 of 6
survivor count [4]: 1 of 6
survivor count (dose: 400.0 mg/kg/injection, schedule: Q01DX009 (ip), vehicle: saline): 3 of 6 and 4 of 6
survivor count (dose: 600.0 mg/kg/injection, schedule: Q01DX009 (ip), vehicle: saline): 0 of 6

NC1=NC2CC(N1)c1ccc(O)cc1O2 (configuration not stated)
survivor count (dose: 200.0 mg/kg/injection, schedule: Q01DX009 (ip), vehicle: saline): 2 of 6

Cc1cc(-c2c(C)[nH]n(-c3nc4ccc(F)cc4s3)c2=O)n(-c2nc3ccc(F)cc3s2)n1
survivor count (dose: 120.0 mg/kg/injection, schedule: Q01DX005 (ip), vehicle: saline with Tween-80): 0 of 6
survivor count [3]: 0 of 6

CCC(=O)N(C)C(C)C(=O)OC1CC(=O)N(C)c2cc(cc(OC)c2Cl)CC(C)CCCC(OC)C2(O)CC(OC(=O)N2)C(C)C2OC12C (configuration not stated)
survivor count (dose: 25.0 micrograms/kg/injection, schedule: Q01DX009 (ip), vehicle: saline + alcohol): 6 of 6

Nc1nc(N)c(N)c(N)n1
survivor count [5]: 6 of 6
survivor count [6]: 0 of 6
survivor count [7]: 0 of 6

CC(C)OC(=O)C#N
survivor count (dose: 25.0 mg/kg/injection, schedule: Q01DX005 (ip), vehicle: saline with Tween-80): 0 of 6
survivor count (dose: 50.0 mg/kg/injection, schedule: Q01DX005 (ip), vehicle: saline with Tween-80): 0 of 6
survivor count [8]: 0 of 6
survivor count (dose: 200.0 mg/kg/injection, schedule: Q01DX005 (ip), vehicle: saline with Tween-80): 0 of 6

COC1OC(CS[As](C)C)C(O)C(O)C1O (configuration not stated)
survivor count [1]: 3 of 6
survivor count [2]: 0 of 6

CCCC(=O)C1C(c2ccccc2)CC(=O)C(CC)C1c1ccccc1 (configuration not stated)
survivor count [8]: 5 of 5

CCC(C)C1NC(=O)C(NC(=O)c2c3nc4c(C(=O)NC5C(=O)NC(C(C)CC)C(=O)N6CCCC6C(=O)N(C)CC(=O)N(C)C(C(C)C)C(=O)OC5C)cc(N)c(C)c4oc-3c(C)c(=O)c2N)C(C)OC(=O)C(C(C)C)N(C)C(=O)CN(C)C(=O)C2CCCN2C1=O (configuration not stated)
survivor count (dose: 0.4 mg/kg/injection, schedule: Q01DX009 (ip), vehicle: Klucel (hydroxypropylcellulose) (HPC)): 6 of 6
survivor count (dose: 0.8 mg/kg/injection, schedule: Q01DX009 (ip), vehicle: Klucel (hydroxypropylcellulose) (HPC)): 6 of 6
survivor count (dose: 1.6 mg/kg/injection, schedule: Q01DX009 (ip), vehicle: Klucel (hydroxypropylcellulose) (HPC)): 0 of 6
T/C (dose: 44.0 micrograms/kg/injection, schedule: Q01DX009 (ip), vehicle: water): 125 % of control
T/C (dose: 66.0 micrograms/kg/injection, schedule: Q01DX009 (ip), vehicle: water): 133 % of control

CCCCCCCCCCCCCCCCOS(=O)(=O)O (tested in a mixture with another compound)
survivor count [9]: 6 of 6

Nc1nc([Se]c2nc(N)nc3c2ncn3C2OC(CO)C(O)C2O)c2ncn(C3OC(CO)C(O)C3O)c2n1 (configuration not stated)
T/C (dose: 12.5 mg/kg/injection, schedule: Q01DX005 (ip), vehicle: distilled water + Tween-80): 132 % of control
T/C (dose: 25.0 mg/kg/injection, schedule: Q01DX005 (ip), vehicle: distilled water + Tween-80): 138 % of control [5 of 6 alive]
T/C (dose: 50.0 mg/kg/injection, schedule: Q01DX005 (ip), vehicle: distilled water + Tween-80): 141 % of control
T/C (dose: 100.0 mg/kg/injection, schedule: Q01DX005 (ip), vehicle: distilled water + Tween-80): 135 % of control
survivor count (dose: 400.0 mg/kg/injection, schedule: Q01DX005 (ip), vehicle: distilled water + Tween-80): 0 of 6

Nc1c(SSc2ccc3ccccc3c2N)ccc2ccccc12
survivor count (dose: 50.0 mg/kg/injection, schedule: Q01DX001 (ip), vehicle: Klucel (hydroxypropylcellulose) (HPC)): 6 of 6
survivor count (dose: 100.0 mg/kg/injection, schedule: Q01DX001 (ip), vehicle: Klucel (hydroxypropylcellulose) (HPC)): 6 of 6
survivor count (dose: 200.0 mg/kg/injection, schedule: Q01DX001 (ip), vehicle: Klucel (hydroxypropylcellulose) (HPC)): 6 of 6

N#CCc1noc2ccccc12
survivor count [5]: 1 of 6 and 2 of 6
survivor count [6]: 0 of 6
survivor count [7]: 0 of 6

CCN(CC)c1ccc2cc(-c3nc4ccccc4n3C)c(=O)oc2c1
T/C (dose: 100.0 mg/kg/injection, schedule: Q04DX003 (ip), vehicle: Klucel (hydroxypropylcellulose) (HPC)): 129 % of control
survivor count (dose: 400.0 mg/kg/injection, schedule: Q04DX003 (ip), vehicle: Klucel (hydroxypropylcellulose) (HPC)): 3 of 6

Nc1ccc(Cn2ccc3c4c(N)nc(N)nc4ccc32)cc1
T/C (dose: 5.0 mg/kg/injection, schedule: Q01DX009 (ip), vehicle: saline with Tween-80): 133 and 144 % of control
T/C [9]: 135 % of control
T/C [10]: 144 % of control
survivor count [10]: 2 of 6
survivor count (dose: 40.0 mg/kg/injection, schedule: Q01DX009 (ip), vehicle: saline with Tween-80): 2 of 6

CCCCCCCCCCCCN(O)C(=O)c1ccccc1
survivor count [1]: 5 of 6

NC(N)=NCCNC(=O)C1CCC(N)C1 (configuration not stated)
survivor count (dose: 1.25 mg/kg/injection, schedule: Q01DX009 (ip), vehicle: saline): 6 of 6
survivor count (dose: 2.5 mg/kg/injection, schedule: Q01DX009 (ip), vehicle: saline): 6 of 6
survivor count (dose: 5.0 mg/kg/injection, schedule: Q01DX009 (ip), vehicle: saline): 6 of 6

CC(=O)CC(=O)Cc1oc2c(C(C)=O)c(O)c(C)c(O)c2c1C
survivor count [6]: 3 of 3
survivor count [7]: 6 of 6
survivor count [4]: 3 of 3 and 6 of 6

c1ccc2c(c1)-c1ccccc1C1NC21 (configuration not stated)
T/C (dose: 50.0 mg/kg/injection, schedule: Q01DX001 (ip), vehicle: saline with Tween-80): 130 [5 of 6 alive] and 137 % of control
survivor count (dose: 100.0 mg/kg/injection, schedule: Q01DX001 (ip), vehicle: saline with Tween-80): 0 of 6
